Results reported in US20250346680A1.
These are yes or no findings as the source states them, for the method shown. Some binding calls cover weakened binding; strength is not graded here.

By UniProt entry, the sequences of proteins in these tests, tags left out. Residues count along the entry.
UniProt P28908, residues 19-379: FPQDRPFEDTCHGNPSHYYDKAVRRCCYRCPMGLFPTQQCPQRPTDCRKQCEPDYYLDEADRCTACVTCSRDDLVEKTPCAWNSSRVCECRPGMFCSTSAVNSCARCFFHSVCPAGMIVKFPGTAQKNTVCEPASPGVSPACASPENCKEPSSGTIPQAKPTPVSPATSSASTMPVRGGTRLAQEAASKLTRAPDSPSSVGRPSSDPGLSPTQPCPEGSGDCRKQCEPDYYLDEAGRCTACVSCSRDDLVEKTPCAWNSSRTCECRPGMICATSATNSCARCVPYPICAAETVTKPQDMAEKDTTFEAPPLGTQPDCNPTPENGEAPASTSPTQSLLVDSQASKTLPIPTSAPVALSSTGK

B1: monoclonal antibody 8D10 (antibody, V domains shown)
VH: QVQLQESGTELVKPGASVKLSCKASGYTFTSYWMHWMKQRPGQGLEWIGNINPSNGGTNYNEKFKNKATLTVDKSSSTAYMQLSSLTSEDSAVYYCARRDYYYGSSYGFDVWGTGTTVTVSS
VL: DIVMTQSPASQSASLGESVTITCLASQTIGTWLAWYQQKPGKSPQFLIYAATSLADGVPSRFSGSGSGTKFSFKISSLQAEDFVSYYCQQLYSTPFTFGGGTKLEIK
B2: monoclonal antibody 12B1 (antibody, V domains shown)
VH: EVKLEESGTELVKPGASVKLSCKASGYTFTSYWMHWVKQRPGQGLEWIGNINPTNGGTNYNEKFKSKATLTVDKSSRTAYMQLSSLTSGDSAVYYCARRDFITTSGFAYWGQGTLVTVSA
VL: DIVMTQTTASLSTSVGETVTITCRASGNLHSYLTWYQQKQGKSPQLLVYNAKTLADGVPSRFSGSGSGTQYSLKIDSLQPEDFGSYYCQHFWTTPFTFGSGTKLEIK
B3: monoclonal antibody 13H1 (antibody, V domains shown)
VH: QVQLQQSGTELVKPGASVKLSCKASGHTFTSYWMHWVKQRPGQGLEWIGNINPSNGGTNYNEKFKSKATLTVDKSSSTAYMQLSSLTSEDSAVYYCARRGYYGSSSYWSFDVWGTGTTVTVSS
VL: DIVMTQTPKSMSMSVGERVTLSCKASENVGTYVSWYQQKPEQSPKVLIYGASNRFTGVPDRFTGSGSATDFTLTISSVQTEDLADYHCGQSYSYPLTFGAGTKLELK
B4: monoclonal antibody 15B8 (antibody, V domains shown)
VH: QVQLEQSGTELVKPGASVKLSCKASGYTFTSYWMHWVKQRPGQGLEWIGNINPSNGGTNYNEKFKSKATLTVDKSSSTAYMQLSSLTSEDSAIYYCARRNNYYASSPFAYWGQGTLVSVSA
VL: DIVMTQTPASLSASVGETVTITCRASGNIHNYLAWYQQKQGKSPQLLVYNAKTLADGVPSRFSGSGSGTQYSLKINSLQPEDFGSYYCQHFWSTPFTFGSGTKLEIK

These binders were tested against recombinant CD30-GST fusion protein (human) (UniProt P28908) (assay: ELISA, plates coated with recombinant CD30-GST fusion protein).

binding, binds:
B1
B2
B3
B4
